# About 4,300 (3.1%) of roughly 140,000 compounds were called active. This list was built around the results that the source calls inconclusive (neither active nor inactive); the mix of calls is not that of the screen.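 The calls were made as follows: active = readout at or below -70, meaning at least 70% loss of cells showing the perinucleolar compartment, a nuclear body marking cancer cells; inconclusive = readout between -30 and a set limit; inactive = the rest.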
# Assay: High Content Assay for Compounds that inhibit the Assembly of the Perinucleolar Compartment;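 also: plate controls were DMSO wells for no effect and camptothecin positive control wells for full effect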
# Conditions: PC3M PTB-GFP, PNC prevalence imaging, 16 h; at 10 µM; active compounds read low
# In short: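 Read-out is percentage of cells bearing a perinucleolar compartment, from automated 20x imaging of fixed, Hoechst-stained PC3M PTB-GFP cells. Cells were seeded 4 h, then exposed 16 h to compound (23 nl of library stock) in duplicate plates.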
row,SMILES,"activity change (PNC), negative = inhibition"
1,Cc1cccc(N2CCN(S(=O)(=O)c3c(C)[nH]c(=O)[nH]c3=O)CC2)c1C,inconclusive: -51.5%
2,O=S(=O)(c1cccc(NC(=S)N2CCN(c3ccccc3F)CC2)c1)C(F)F,inconclusive: -36.1%
3,O=C(Nc1ccccc1-c1ccccc1)c1cc(C(F)(F)F)cc(C(F)(F)F)c1,inconclusive: -32.8%
4,COc1ccc(-c2cnnc(N/N=C/c3c(C)nn(-c4ccccc4)c3Cl)n2)cc1,inactive: -14.3%
5,CSc1n[nH]c2nc3c(c(=O)n12)C1(CCCC1)Cc1ccccc1-3,inconclusive: -61.8%
6,COc1ccc(N(CC(=O)Nc2cccc(SC)c2)S(C)(=O)=O)cc1,inactive: 0%
7,O=C(CSc1nc2ccccc2[nH]1)c1ccc2c(c1)OCO2,inconclusive: -38.9%
8,Cc1nn(Cc2ccccc2)c(C)c1NC(=O)c1cc(-c2ccc3c(c2)OCO3)on1,inconclusive: -32.7%
9,CCOC(=O)N1CCC(n2c(SCC(=O)c3ccccc3)nc3ccsc3c2=O)CC1,inactive: -1.16%
10,O=S(=O)(c1ccc(F)cc1)c1nc(-c2ccccc2F)oc1N1CCCCC1,inactive: 32.8%
11,CCOc1cccc(OCCn2cnc3ccccc3c2=O)c1,active: -90.7%
12,O=c1c2ccccc2nnn1Cc1nnc(-c2ccccc2Br)o1,inconclusive: -59.1%
13,C=CCn1c(=NC(=O)c2ccco2)sc2cc(C(=O)OC)ccc21,inconclusive: -58.3%
14,O=C(Nc1nnc(COc2ccc(Cl)cc2)s1)C1CCCO1 (stereo not drawn),inconclusive: -55.6%
15,CCCC(=O)Nc1ccc(Sc2ccc([N+](=O)[O-])cc2)cc1,inactive: 13.3%
16,COC(=O)c1cccc(NC(=O)CSc2nc(C)cc(=O)[nH]2)c1,inconclusive: -61%
17,CC(=O)c1c(N2CCN(Cc3ccc4c(c3)OCO4)CC2)nc(=S)n(-c2ccccc2)c1C,inconclusive: -44%
18,O=S(=O)(N/N=C1/CC(c2ccccc2)Oc2ccccc21)c1ccc(Br)cc1 (stereo not drawn),inconclusive: -40.4%
19,CN(C)C(=O)c1c(NC(=O)c2ccco2)sc2c1CCCCC2,inactive: -0.64%
20,CCOC(=O)c1[nH]c2cc(OC)c(OC)cc2c1N,inconclusive: -33.3%
21,CCOC(=O)Cc1nnc(NC(=O)CSc2nnc3c4ccccc4n(C(C)C)c3n2)s1,inactive: -16.7%
22,CCOCC(=O)Nc1nnc(C2CCCCC2)s1,inactive: 6.15%

row,SMILES,"activity change (PNC), negative = inhibition"
1,Cc1ccc(S(=O)(=O)N2CCN(Cc3nc4ccccc4[nH]3)CC2)cc1C,inconclusive: -41.4%
2,O=C(NC(=S)NCC1CCCO1)c1ccc([N+](=O)[O-])cc1 (stereo not drawn),inactive: 26.3%
3,CCCCn1nc(NC(=O)c2cccs2)c2cc3cc(OC)ccc3nc21,inconclusive: -57%
4,Cc1c(Cl)c(C(=O)NC2C3CC4CC(C3)CC2C4)nn1C (stereo not drawn),inconclusive: -49.6%
5,CCOc1ccc(-c2csc(Cn3c(CN4CCN(C)CC4)nc4ccccc4c3=O)n2)cc1,inactive: -16%
6,O=c1c2ccccc2nc(SCc2nnc(-c3ccccc3)o2)n1-c1ccccc1,inconclusive: -31.6%
7,Cc1ccc(C(=O)CSc2nnc(CNc3ccc(C)cc3C)o2)cc1,inconclusive: -49%
8,Cc1cccnc1NC(=O)Nc1cccs1,inconclusive: -78.7%
9,O=C(O)c1cccc(N/N=C/c2cc(Br)cc(Br)c2O)c1,inconclusive: -31.9%
10,CCOC(=O)C1=NN(c2ccccc2)C2=NC(C)=C(C(=O)OC)C(c3ccc(C)cc3)N12 (stereo not drawn),inconclusive: -54.7%
11,N#CC(c1ccccc1)N(CCCCl)C(=O)c1ccccc1 (stereo not drawn),inconclusive: -32.7%
12,O=C(Nc1ccc(N2CCN(C(=O)c3ccccc3)CC2)c(Cl)c1)c1ccco1,inactive: 4.5%
13,COc1ccccc1NC(CC(=O)c1ccccc1)C(=O)OCC(=O)c1ccc(C)c(C)c1 (stereo not drawn),inconclusive: -45.4%
14,Nc1nc2ccccc2n1/N=C/c1ccc(-c2ccccc2)o1,inactive: 18.1%
15,COc1nc(N(C)S(=O)(=O)c2ccc(C)cc2)nc(C)c1Cl,inconclusive: -64.7%
16,Cc1ccc(NC(=O)CSc2ccc3nnc(CCNC(=O)c4ccccc4)n3n2)c(C)c1,inconclusive: -64.4%
17,O=[N+]([O-])c1cccc(-c2ccc(/C=N/NC(=S)Nc3ccccc3)o2)c1,inconclusive: -62.1%
18,Cc1cc(=O)oc2cc(OCC(=O)Nc3nnc(C(C)C)s3)ccc12,inconclusive: -36.6%
19,COc1ccccc1N(O)C1CC(=O)N(c2ccc(Br)cc2)C1=O (stereo not drawn),inconclusive: -39.7%
20,O=C(Cn1c(C(F)(F)F)nc2ccccc21)Oc1cccc(C(F)(F)F)c1,inconclusive: -33.9%
21,Cc1ccc(Sc2cc(C(F)(F)F)nc(N(C)C)n2)cc1,inconclusive: -41.2%
22,O=C(CCN1CCC(c2ccccc2)C1)c1cccs1 (stereo not drawn),inactive: -11.2%

row,SMILES,"activity change (PNC), negative = inhibition"
1,CCOC(=O)C1=C(N)OC2=C(C(=O)CCC2)C1c1ccccc1OCC (stereo not drawn),inconclusive: -45.2%
2,CN(C)c1ccc(/C(=N\O)c2ccccc2)cc1,inconclusive: -64.6%
3,O=C(COC(=O)c1n[nH]c2ccccc12)NC(=O)NCc1ccco1,inactive: -10.5%
4,Cc1ccc2c(Cl)cc(Cl)c(OCc3c(C)noc3C)c2n1,inconclusive: -47%
5,CCOC(=O)c1c(NC(=S)Nc2ccccc2)sc2c1CCCCC2,inconclusive: -65%
6,COc1ccc(S(=O)(=O)n2nc(OC(=O)c3ccccc3Br)cc2N)cc1,inconclusive: -51.5%
7,CC(C)CC(=O)NC(=S)Nc1ccc(S(=O)(=O)NC(C)(C)C)cc1,inactive: -16.6%
8,COc1ccc(C(c2nnnn2C2CCCC2)N2CCC(C)CC2)c(OC)c1 (stereo not drawn),inconclusive: -58.9%
9,C(=N\Nc1nc2ccccc2[nH]1)/c1cccs1,inactive: 4.36%
10,Cc1ccc(-c2noc(-c3ccccc3C(=O)NCC3CCCO3)n2)cc1 (stereo not drawn),inconclusive: -76%
11,COc1ccc(N(CC(=O)Nc2ccccc2C(=O)NCCc2ccccc2)S(C)(=O)=O)cc1OC,inconclusive: -41.5%
12,COC(=O)c1c(NC(=O)/C=C/C(=O)O)sc(C)c1-c1ccc(C)c(C)c1,inconclusive: -62.6%
13,Cc1ccc(C(=O)N/C(=C\c2ccc(C(C)C)cc2)C(=O)NCCCN2CCOCC2)cc1,inactive: -1.98%
14,O=C(CSc1n[nH]c(-c2cccs2)n1)NCc1ccc2c(c1)OCO2,inconclusive: -32.7%
15,COc1ccc2nc(SCC(=O)Nc3ccccc3)[nH]c2c1,active: -107%
16,COc1ccccc1C(=O)Nc1ccc(S(=O)(=O)Nc2cc(C)on2)cc1,inconclusive: -39.2%
17,CC(C)(CO)N=Cc1c(O)[nH]c2ccccc12,inactive: -0.663%
18,CN(C(=O)c1ccc2c(c1)OCO2)C1(C(=O)NC2CCCCC2)CCCCC1,inconclusive: -39.7%
19,Clc1ccc(-c2nn3c(-c4ccccc4)nnc3s2)cc1,inactive: -27.9%
20,CC(C)COc1ccc(C(=O)NC(CC(C)C)C(=O)O)cc1 (stereo not drawn),inactive: 25.4%
21,Cc1c(C(=O)NCc2ccc3c(c2)OCO3)oc2ccc(S(=O)(=O)N3CCCC3)cc12,inconclusive: -63.3%
22,O=C1CN(c2ccc(Br)cc2)C(=O)N1CC(=O)N1CCCc2ccccc21,inactive: 1.38%

row,SMILES,"activity change (PNC), negative = inhibition"
1,COc1cc(C2c3c(-c4cc(C)cc(C)c4O)n[nH]c3C(=O)N2CCCO)cc(OC)c1OC (stereo not drawn),active: -100%
2,Cc1cc(C)c(C(=O)CSC2=NC(N)=C(C#N)C3(CCCCC3)C2C(N)=O)cc1C (stereo not drawn),inconclusive: -55.1%
3,Cc1nc2c(o1)CCc1ccccc1C2O (stereo not drawn),inconclusive: -30.3%
4,CCOC(=O)c1nnn(CC(=O)N2N=C(c3ccccc3)CC2c2ccccc2)c1C(=O)OCC (stereo not drawn),inactive: -21.9%
5,CC1CCc2c(C(=O)Nc3nccs3)csc2C1 (stereo not drawn),inactive: 9.57%
6,CCc1ccccc1N1CSC2=C(C#N)C(c3ccccc3F)CC(=O)N2C1 (stereo not drawn),inconclusive: -47.4%
7,CCOC(=O)c1[nH]c2ccc(OC)cc2c1NS(=O)(=O)c1ccc(Cl)s1,inconclusive: -45.7%
8,c1ccc(Nc2nc(N3CCCCC3)nc(N3CCCCC3)n2)cc1,inconclusive: -37%
9,O=C(CSc1nnc2ccccn12)c1ccc2c(c1)OCCO2,inconclusive: -34.2%
10,CC(C)Cn1c(O)c2ccc(C(=O)N=NC(=O)c3cccnc3)cc2c1O,inconclusive: -42.2%
11,CCCc1cc(-c2[nH]ncc2-c2ccc3c(c2)OCCCO3)c(O)cc1OC,inactive: -16.2%
12,Cc1oc(C(=O)O)cc1COc1ccccc1Cl,inconclusive: -34.1%
13,Cc1ccccc1NC(=O)COC(=O)/C=C/c1cn(-c2ccccc2)nc1-c1cccnc1,inconclusive: -77.3%
14,CC(C)(C)NC(=O)CN(C(=O)C1CSC(=O)C1)c1ccc2c(c1)OCCO2 (stereo not drawn),inconclusive: -59.7%
15,O=C(O)c1ccc2c(=O)n3c(nc2c1)/C(=C/c1ccccc1C(F)(F)F)CCCC3,inactive: 21%
16,CCCNC(=O)c1cccc(C(F)(F)F)c1,inconclusive: -42.4%
17,N#CC1=C(N)C2=CCCC[C@H]2[C@H](c2ccccc2)C1(C#N)C#N,inconclusive: -64.4%
18,Cc1ccc(NC(=O)CN2C(=O)COc3ccc(C)cc32)nc1,inactive: 22.7%
19,Cc1cnc(NC(=O)C(C)N2C(=O)C3CC=CCC3C2=O)s1 (stereo not drawn),inconclusive: -60.9%
20,COc1cc(/C=C2\SC(=S)N(Nc3ncc(C(F)(F)F)cc3Cl)C2=O)cc(OC)c1OC,inactive: 7.84%
21,COc1ccc(S(=O)(=O)Nc2ccc(S(=O)(=O)N3CCCCC3)cc2)cc1OC,active: -88.7%
22,COc1ccc(NC(=O)CNCCC2=CCCCC2)cc1,inconclusive: -47.7%

# Some of the entries above, reformatted:
row	SMILES	activity change (PNC), negative = inhibition
20	O=C(Cn1c(C(F)(F)F)nc2ccccc21)Oc1cccc(C(F)(F)F)c1	inconclusive: -33.9%
21	Cc1ccc(Sc2cc(C(F)(F)F)nc(N(C)C)n2)cc1	inconclusive: -41.2%
22	O=C(CCN1CCC(c2ccccc2)C1)c1cccs1 (stereo not drawn)	inactive: -11.2%
1	CCOC(=O)C1=C(N)OC2=C(C(=O)CCC2)C1c1ccccc1OCC (stereo not drawn)	inconclusive: -45.2%
2	CN(C)c1ccc(/C(=N\O)c2ccccc2)cc1	inconclusive: -64.6%
3	O=C(COC(=O)c1n[nH]c2ccccc12)NC(=O)NCc1ccco1	inactive: -10.5%
4	Cc1ccc2c(Cl)cc(Cl)c(OCc3c(C)noc3C)c2n1	inconclusive: -47%
